These are yes or no findings as the source states them, for the method shown. In cells and extracts the contact can be indirect. A result given as binding can be weak or reduced; the word gives no strength.
Target: EGFP-full length GRP78 (wild type) (human) (UniProt P11021)
Assay: co-IP; EGFP-GRP78 fusion as bait co-expressed with the prey in HEK293T/17 for 48 h; lysate in 50 mM HEPES pH 7.4, 150 mM NaCl, 1 mM EGTA, 10% glycerol, 1% Triton X-100; GFP-Trap beads, 4 °C, 1 h; western blot

Sequences of proteins named here, by UniProt entry; tags and fusion partners are left off. A change or cut given only in a name is not applied to a line headed by its entry. Residues count along the entry.
UniProt P11021, residues 19-654: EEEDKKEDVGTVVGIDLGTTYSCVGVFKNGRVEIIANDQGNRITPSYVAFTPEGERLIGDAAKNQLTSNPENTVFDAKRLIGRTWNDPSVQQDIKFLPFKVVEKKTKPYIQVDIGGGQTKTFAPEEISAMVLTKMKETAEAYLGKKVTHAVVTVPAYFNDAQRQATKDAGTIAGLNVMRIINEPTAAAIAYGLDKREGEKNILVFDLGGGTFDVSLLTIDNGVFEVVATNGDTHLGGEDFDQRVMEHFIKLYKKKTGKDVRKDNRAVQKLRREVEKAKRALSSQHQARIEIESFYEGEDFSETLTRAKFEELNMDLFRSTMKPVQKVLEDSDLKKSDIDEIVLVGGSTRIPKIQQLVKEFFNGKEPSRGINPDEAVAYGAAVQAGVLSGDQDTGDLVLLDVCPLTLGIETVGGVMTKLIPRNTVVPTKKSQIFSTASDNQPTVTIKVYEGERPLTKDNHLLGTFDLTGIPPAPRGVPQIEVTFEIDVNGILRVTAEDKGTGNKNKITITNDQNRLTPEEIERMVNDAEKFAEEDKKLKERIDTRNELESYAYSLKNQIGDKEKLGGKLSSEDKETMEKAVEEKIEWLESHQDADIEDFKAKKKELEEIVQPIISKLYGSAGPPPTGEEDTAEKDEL
UniProt A0A142I5B9: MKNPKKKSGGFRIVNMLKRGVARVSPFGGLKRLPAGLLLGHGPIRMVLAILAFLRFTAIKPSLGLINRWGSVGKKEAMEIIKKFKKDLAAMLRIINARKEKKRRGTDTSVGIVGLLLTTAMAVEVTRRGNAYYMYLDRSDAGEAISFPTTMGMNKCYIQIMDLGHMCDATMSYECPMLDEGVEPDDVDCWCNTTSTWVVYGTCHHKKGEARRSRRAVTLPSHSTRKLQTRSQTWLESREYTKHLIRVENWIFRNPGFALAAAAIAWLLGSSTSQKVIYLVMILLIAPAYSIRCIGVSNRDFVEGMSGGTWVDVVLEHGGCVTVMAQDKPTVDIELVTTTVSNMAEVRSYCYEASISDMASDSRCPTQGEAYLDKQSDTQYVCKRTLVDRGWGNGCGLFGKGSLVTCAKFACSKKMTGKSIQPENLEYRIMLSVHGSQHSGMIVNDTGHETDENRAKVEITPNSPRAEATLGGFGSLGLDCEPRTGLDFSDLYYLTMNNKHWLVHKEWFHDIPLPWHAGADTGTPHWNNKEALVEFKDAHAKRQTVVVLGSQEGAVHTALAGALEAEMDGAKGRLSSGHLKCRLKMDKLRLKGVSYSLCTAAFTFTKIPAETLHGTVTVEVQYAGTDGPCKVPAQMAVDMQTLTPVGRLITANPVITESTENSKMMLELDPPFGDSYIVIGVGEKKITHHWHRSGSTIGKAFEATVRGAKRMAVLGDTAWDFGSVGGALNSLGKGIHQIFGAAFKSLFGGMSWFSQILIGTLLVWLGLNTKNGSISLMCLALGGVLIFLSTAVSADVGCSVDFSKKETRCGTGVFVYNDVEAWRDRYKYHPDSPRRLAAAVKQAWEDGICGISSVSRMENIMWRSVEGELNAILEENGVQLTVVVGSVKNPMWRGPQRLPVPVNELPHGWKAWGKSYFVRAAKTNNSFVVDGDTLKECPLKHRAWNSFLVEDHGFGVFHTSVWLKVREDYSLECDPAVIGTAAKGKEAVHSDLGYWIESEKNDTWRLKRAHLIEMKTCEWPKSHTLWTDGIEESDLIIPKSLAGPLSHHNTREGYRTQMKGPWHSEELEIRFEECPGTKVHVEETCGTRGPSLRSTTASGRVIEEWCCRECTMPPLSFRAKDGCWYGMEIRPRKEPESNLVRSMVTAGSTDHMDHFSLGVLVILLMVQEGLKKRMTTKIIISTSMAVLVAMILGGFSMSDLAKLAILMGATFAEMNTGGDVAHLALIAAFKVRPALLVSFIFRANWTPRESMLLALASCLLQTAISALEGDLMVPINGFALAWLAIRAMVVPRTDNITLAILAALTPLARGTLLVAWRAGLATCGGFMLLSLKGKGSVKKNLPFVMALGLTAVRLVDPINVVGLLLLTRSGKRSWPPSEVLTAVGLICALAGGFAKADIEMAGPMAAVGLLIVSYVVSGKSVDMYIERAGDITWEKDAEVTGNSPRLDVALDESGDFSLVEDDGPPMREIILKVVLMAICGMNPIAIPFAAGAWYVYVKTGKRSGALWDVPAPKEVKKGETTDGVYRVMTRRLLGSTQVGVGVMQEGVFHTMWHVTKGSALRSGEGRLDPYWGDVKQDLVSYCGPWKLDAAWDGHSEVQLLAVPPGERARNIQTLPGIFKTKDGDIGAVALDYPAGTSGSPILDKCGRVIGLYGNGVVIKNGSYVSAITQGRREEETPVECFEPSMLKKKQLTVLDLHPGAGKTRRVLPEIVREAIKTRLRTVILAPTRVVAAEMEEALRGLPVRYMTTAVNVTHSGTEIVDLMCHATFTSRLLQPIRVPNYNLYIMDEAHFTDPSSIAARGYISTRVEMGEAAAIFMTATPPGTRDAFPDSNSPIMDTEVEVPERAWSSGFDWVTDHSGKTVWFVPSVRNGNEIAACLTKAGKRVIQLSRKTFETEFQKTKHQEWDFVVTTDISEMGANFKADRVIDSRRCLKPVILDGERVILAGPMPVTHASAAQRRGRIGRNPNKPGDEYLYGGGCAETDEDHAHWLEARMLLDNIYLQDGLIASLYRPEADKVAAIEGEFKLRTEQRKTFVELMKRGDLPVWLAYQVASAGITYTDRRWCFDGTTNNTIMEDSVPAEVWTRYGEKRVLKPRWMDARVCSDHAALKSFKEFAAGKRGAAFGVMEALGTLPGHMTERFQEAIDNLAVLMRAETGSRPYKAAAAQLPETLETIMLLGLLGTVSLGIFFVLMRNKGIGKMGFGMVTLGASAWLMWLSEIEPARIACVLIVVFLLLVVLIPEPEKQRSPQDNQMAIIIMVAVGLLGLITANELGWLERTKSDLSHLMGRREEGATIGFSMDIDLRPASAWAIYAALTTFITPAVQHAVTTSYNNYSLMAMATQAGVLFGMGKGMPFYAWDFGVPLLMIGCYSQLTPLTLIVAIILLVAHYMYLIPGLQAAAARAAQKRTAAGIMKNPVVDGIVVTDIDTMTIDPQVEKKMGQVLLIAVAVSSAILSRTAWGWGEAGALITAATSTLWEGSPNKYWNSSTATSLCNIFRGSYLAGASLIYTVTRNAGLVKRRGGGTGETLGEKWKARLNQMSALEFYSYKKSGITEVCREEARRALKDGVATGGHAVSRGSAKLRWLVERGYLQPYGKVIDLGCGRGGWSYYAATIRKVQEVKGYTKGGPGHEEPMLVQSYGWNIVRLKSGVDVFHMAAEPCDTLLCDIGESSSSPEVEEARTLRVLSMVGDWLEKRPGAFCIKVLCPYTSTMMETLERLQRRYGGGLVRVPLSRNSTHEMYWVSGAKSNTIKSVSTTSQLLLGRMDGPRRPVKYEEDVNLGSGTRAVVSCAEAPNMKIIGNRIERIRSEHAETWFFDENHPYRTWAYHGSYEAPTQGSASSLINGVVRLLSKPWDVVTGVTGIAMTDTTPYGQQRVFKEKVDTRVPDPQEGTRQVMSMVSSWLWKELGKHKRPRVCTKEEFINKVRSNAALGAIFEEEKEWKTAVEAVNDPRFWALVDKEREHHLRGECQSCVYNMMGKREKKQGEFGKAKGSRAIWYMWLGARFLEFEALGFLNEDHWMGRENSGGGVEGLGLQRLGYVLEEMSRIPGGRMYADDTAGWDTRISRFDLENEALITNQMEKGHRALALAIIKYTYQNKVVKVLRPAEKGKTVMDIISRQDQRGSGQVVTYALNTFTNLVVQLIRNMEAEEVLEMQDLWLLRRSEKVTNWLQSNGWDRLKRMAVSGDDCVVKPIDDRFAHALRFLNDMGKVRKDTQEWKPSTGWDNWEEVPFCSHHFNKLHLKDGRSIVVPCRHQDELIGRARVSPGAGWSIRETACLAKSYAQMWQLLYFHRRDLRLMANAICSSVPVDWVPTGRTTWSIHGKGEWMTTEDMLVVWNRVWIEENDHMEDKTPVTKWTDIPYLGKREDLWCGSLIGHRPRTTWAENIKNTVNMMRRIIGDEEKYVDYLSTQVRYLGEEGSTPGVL

Substance | binding
ZIKV NS1 β-ladder domain, HA tagged (from UniProt A0A142I5B9) (domain or fragment) | binds
ZIKV NS1 wing domain, HA tagged (from UniProt A0A142I5B9) (domain or fragment) | binds
